Source: article PMC8546674

What was measured:
ExsY-SNAP (B. cereus) = biological target: T1, ExsY-SNAP (B. cereus) (UniProt Q7WTL8); assay: pull-down; SNAP capture agarose beads (covalent capture of the SNAP fusion); whole-cell extracts of sporulating B. cereus WT cells producing SNAP fusions, hours 20, 24, 48, 72 at 20°C, and extracts of purified spores; immunoblot with anti-CotE or anti-SNAP antibodies
T1 sequence: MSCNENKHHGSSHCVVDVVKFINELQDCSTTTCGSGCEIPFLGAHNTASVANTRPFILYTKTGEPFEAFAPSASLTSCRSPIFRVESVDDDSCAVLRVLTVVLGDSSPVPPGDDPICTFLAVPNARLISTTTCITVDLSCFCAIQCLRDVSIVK

[1] = biological target: T2, CotY-SNAP (in the exsY mutant of ATCC 10876) (B. cereus ATCC 14579) (UniProt Q6Y3A5); assay: pull-down; SNAP capture resin; whole-cell extracts of sporulating exsY mutant cells producing CotY-SNAP, hours 0, 24, 28, 48 and 72; immunoblot with anti-CotE and anti-SNAP antibodies
T2 sequence: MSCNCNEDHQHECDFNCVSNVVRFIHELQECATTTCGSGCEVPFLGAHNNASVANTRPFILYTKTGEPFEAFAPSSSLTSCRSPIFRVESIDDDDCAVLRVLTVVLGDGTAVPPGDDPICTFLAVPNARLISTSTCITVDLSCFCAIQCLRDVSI

His6-CotY (B. cereus) = biological target: T3, His6-CotY (B. cereus) (UniProt Q6Y3A5); assay: pull-down; heterologous coexpression in E. coli BL21(DE3) (pETDuet system); lysate on Ni2+ beads, washes w1-w3, elutions E1-E3; immunoblot with anti-CotE and anti-His6 antibodies
T3 sequence: T2 sequence

His6-ExsY (B. cereus) = biological target: T4, His6-ExsY (B. cereus) (UniProt Q7WTL8); assay: as above
T4 sequence: T1 sequence

CotE (B. cereus (endogenous in ATCC 14579))
binding (ExsY-SNAP (B. cereus)): binds

CotE (in the exsY mutant of ATCC 10876)
binding [1]: binds

CotE (produced in E. coli) (B. cereus)
binding (His6-CotY (B. cereus)): binds weakly
binding (His6-ExsY (B. cereus)): binds

These are yes or no findings as the source states them, for the method shown. Binding seen in cells or lysates may run through a third protein. A result given as binding can be weak or reduced; the word gives no strength. For some of these results: Tags and fused reporters may be left off the sequences shown.
